In article PMC5253665:
No constants are given. Whether binding was seen depends on the method and setting. Binding seen in cells or lysates may run through a third protein. Some binding calls cover weakened binding; strength is not graded here.

By UniProt entry, the sequences of proteins in these tests, tags left out. Residues count along the entry.
UniProt P29460, residues 23-328: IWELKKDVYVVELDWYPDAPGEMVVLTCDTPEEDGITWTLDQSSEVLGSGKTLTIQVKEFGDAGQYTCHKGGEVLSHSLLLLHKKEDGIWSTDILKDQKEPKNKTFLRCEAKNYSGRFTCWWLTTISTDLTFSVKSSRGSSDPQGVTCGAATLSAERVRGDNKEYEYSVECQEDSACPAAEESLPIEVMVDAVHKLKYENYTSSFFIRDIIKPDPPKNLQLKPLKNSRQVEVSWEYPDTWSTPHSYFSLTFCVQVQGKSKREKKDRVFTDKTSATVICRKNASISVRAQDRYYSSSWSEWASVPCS
UniProt P29459, residues 23-219: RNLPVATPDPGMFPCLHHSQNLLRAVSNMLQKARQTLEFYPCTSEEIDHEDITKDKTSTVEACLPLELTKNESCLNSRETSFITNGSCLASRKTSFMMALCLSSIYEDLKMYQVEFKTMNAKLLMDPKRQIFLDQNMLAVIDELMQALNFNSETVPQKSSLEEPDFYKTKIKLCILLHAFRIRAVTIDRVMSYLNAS

Assays:
[1] = target: T1, EBV-induced gene 3 (EBI3) subunit of IL-35 (human (endogenous in PDAC tumour tissue and primary PDAC cell lines)) (UniProt Q14213); test: co-IP; endogenous proteins in lysates of PDAC tumour tissue (three patients) and of PDAC primary cell lines; immunoprecipitation with antibodies to P35, EBI3, P28 or P40, western blot; the supernatant left after immunoprecipitation was blotted too
T1 sequence: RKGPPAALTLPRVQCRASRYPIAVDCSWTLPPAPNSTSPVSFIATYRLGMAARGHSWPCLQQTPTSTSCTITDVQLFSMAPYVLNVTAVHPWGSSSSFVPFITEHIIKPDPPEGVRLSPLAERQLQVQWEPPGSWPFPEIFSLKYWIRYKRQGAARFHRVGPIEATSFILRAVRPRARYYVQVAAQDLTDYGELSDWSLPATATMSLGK

[2] = target: P40 (subunit that forms IL-12 with P35) (human (endogenous in PDAC tumour tissue and primary PDAC cell lines)) (UniProt P29460); test: as above

Substance: P35 subunit of IL-35 (from UniProt P29459 23-219)
- binding [1]: binds
- binding [2]: binds
